Measured values: doi:10.1101/2020.06.18.159293
Results are given in words; binding and its absence hold for the method and conditions named. In cells and extracts the contact can be indirect. A yes stands for co-enrichment or nearness to the bait. Other partners may have been found.

Assays:
Test in all cases: proximity labelling
[1] = target: T1, ULK4 R39 variant (BioID bait) (human) (UniProt Q96C45)
T1 sequence: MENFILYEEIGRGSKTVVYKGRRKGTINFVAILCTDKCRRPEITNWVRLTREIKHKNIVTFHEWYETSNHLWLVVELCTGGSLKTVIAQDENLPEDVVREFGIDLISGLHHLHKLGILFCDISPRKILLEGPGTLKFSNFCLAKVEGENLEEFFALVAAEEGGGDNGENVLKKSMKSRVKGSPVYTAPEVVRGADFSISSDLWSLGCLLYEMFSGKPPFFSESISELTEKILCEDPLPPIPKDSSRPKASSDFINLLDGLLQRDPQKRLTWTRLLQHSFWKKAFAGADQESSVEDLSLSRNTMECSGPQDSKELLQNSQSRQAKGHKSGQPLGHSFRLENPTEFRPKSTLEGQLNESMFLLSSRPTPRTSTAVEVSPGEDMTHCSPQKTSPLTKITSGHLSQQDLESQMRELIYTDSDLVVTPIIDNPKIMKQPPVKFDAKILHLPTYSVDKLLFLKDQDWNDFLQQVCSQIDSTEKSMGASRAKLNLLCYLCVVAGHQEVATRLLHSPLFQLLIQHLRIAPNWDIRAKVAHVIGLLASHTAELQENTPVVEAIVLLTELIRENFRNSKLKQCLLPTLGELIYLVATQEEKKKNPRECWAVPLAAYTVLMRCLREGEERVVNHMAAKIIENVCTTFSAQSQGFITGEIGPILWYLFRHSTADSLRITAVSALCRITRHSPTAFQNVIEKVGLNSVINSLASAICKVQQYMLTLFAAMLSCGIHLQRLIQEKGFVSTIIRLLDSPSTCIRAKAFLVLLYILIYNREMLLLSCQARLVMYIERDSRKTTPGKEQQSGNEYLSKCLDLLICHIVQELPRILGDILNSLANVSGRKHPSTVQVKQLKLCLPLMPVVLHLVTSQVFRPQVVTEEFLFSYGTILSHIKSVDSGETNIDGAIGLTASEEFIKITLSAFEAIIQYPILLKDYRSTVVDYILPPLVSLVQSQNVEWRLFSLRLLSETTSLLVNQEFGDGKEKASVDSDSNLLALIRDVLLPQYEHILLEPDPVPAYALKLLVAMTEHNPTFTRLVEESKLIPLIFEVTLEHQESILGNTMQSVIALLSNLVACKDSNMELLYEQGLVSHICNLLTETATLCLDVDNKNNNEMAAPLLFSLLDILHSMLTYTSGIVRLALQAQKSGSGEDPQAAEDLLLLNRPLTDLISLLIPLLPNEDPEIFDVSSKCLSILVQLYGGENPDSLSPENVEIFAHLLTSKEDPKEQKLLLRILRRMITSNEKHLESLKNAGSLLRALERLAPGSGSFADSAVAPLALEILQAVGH

[2] = target: N-terminally FLAG-tagged ULK4 (FlagBirA*-ULK4) (human) (UniProt Q96C45)
[3] = target: N- and C-terminally FlagBirA* tagged full length ULK4 (BioID baits, hits pooled) (human) (UniProt Q96C45)
[4] = target: C-terminally FLAG-tagged full-length ULK4 (ULK4-BirA*Flag) (human) (UniProt Q96C45)

Measured: binding

B1: PTPN14 (protein tyrosine phosphatase, non-receptor type 14) (protein, UniProt Q15678 1-1187)
chain: MPFGLKLRRTRRYNVLSKNCFVTRIRLLDSNVIECTLSVESTGQECLEAVAQRLELRETHYFGLWFLSKSQQARWVELEKPLKKHLDKFANEPLLFFGVMFYVPNVSWLQQEATRYQYYLQVKKDVLEGRLRCTLDQVIRLAGLAVQADFGDYNQFDSQDFLREYVLFPMDLALEEAVLEELTQKVAQEHKAHSGILPAEAELMYINEVERLDGFGQEIFPVKDNHGNCVHLGIFFMGIFVRNRIGRQAVIYRWNDMGNITHNKSTILVELINKEETALFHTDDIENAKYISRLFATRHKFYKQNKICTEQSNSPPPIRRQPTWSRSSLPRQQPYILPPVHVQCGEHYSETHTSQDSIFHGNEEALYCNSHNSLDLNYLNGTVTNGSVCSVHSVNSLNCSQSFIQASPVSSNLSIPGSDIMRADYIPSHRHSAIIVPSYRPTPDYETVMRQMKRGILHTDSQSQSLRNLNIINTHAYNQPEDLVYSQPEMRERHPYTVPYGPQGVYSNKLVSPSDQRNPKNNVVPSKPGASAISHTVSTPELANMQLQGSHNYSTAHMLKNYLFRPPPPYPRPRPATSTPDLASHRHKYVSGSSPDLVTRKVQLSVKTFQEDSSPVVHQSLQEVSEPLTATKHHGTVNKRHSLEVMNSMVRGMEAMTLKSLHLPMARRNTLREQGPPEEGSGSHEVPQLPQYHHKKTFSDATMLIHSSESEEEEEEAPESVPQIPMLREKMEYSAQLQAALARIPNKPPPEYPGPRKSVSNGALRQDQASLPPAMARARVLRHGPAKAISMSRTDPPAVNGASLGPSISEPDLTSVKERVKKEPVKERPVSEMFSLEDSIIEREMMIRNLEKQKMAGLEAQKRPLMLAALNGLSVARVSGREENRVDATRVPMDERFRTLKKKLEEGMVFTEYEQIPKKKANGIFSTAALPENAERSRIREVVPYEENRVELIPTKENNTGYINASHIKVVVGGAEWHYIATQGPLPHTCHDFWQMVWEQGVNVIAMVTAEEEGGRTKSHRYWPKLGSKHSSATYGKFKVTTKFRTDSVCYATTGLKVKHLLSGQERTVWHLQYTDWPDHGCPEDVQGFLSYLEEIQSVRRHTNSMLEGTKNRHPPIVVHCSAGVGRTGVLILSELMIYCLEHNEKVEVPMMLRLLREQRMFMIQTIAQYKFVYQVLIQFLQNSRLI
binds: all assays above
